Consider one substance from PMC10464977.

For experiment [1], the target named is T1, FLAG::DBL-1 mature domain (C. elegans) (UniProt G5EEL5).
T1 sequence: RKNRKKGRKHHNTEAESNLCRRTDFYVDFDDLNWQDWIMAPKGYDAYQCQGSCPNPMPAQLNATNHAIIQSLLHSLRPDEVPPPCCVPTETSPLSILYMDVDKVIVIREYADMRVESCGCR
The experiment in a line: co-IP; two lysates or media of transfected Drosophila S2 cells, each with one tagged protein, mixed and rotated on anti-HA, anti-V5, anti-Myc or anti-FLAG beads overnight at 4°C; five washes in 50 mM Tris-HCl (pH 7.5), 150 mM NaCl, 1% Triton X-100; immunoblot. On the technique in general: A western blot detects proteins with antibodies after separation by electrophoresis.

Experiment [2] deals with T1, FLAG::DBL-1 mature domain (C. elegans). The experiment can be described thus: co-IP; LON-2::Myc and DBL-1 (HA::prodomain::FLAG::mature domain) from S2 cells mixed together in the presence of SMOC-1::V5; IP with anti-FLAG beads or anti-Myc beads, IB with anti-Myc, anti-V5 or anti-FLAG.

No constants are given. Whether binding was seen depends on the method and setting. In cells and extracts the contact can be indirect. Binding calls can cover weak binding; strength is not graded here. Tags and fused reporters may be left off the sequences shown.

SMOC-1(Full)::V5 (C. elegans): the binding result in experiment [1] and in experiment [2] was “binds” in each case.
